PubChem BioAssay AID504764 | Drosophila RNAi Screening Center | 2011

Test: 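Genes whose knock-down alters Notch-dependent transcription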 (primary screen)
Cell system: Drosophila Kc167 cells
Knock-down reagent: long dsRNA against Drosophila genes
Time to read-out: about 5 days (4 days dsRNA, then 24 h after transfection)
Challenge: transfection of constitutively active membrane-tethered Notch lacking the extracellular domain, read 24 h later
Measurement: 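Firefly luciferase from an E(spl)m3 reporter with active Notch, plus control-promoter and uninduced reporter wells for normalisation; unnormalised counts, duplicate wells a and b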
Scale: induced reporter light, run 1, well a and induced reporter light, run 1, well b: higher = more light from the Notch target reporter with active Notch; control promoter light, run 1, well a and control promoter light, run 1, well b: higher = more light from the viral control promoter (cell number, transfection, viability); uninduced reporter light, run 1, well a: higher = more light from the Notch target reporter without active Notch
Call rule: 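Hit if the duplicate-averaged log2 ratio of induced to control-promoter light gives a plate-wise z beyond ±2, or induced to uninduced beyond ±1.8; weak-control or discordant-duplicate wells dropped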
Meaning of the calls: active = modifier hit (raised or lowered Notch signal); inactive = not a hit
The screen tested about 22,000 reagents; below is an unselected part of those that have a named target and a result. Of all reagents, 403 (1.9%) were called active. 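Unnormalised raw counts per well; ratio z-scores behind the hit calls and whether each hit raises or lowers signal are not deposited.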 Not stated in the record: the amount of reagent.

predicted target | amplicon | induced reporter light, run 1, well a | induced reporter light, run 1, well b | control promoter light, run 1, well a | control promoter light, run 1, well b | uninduced reporter light, run 1, well a | Outcome
CG32276 | DRSC08027 | 2.38e5 | 2.31e5 | 2.16e5 | 1.85e5 | 18910 | inactive
ND2 (retired record) | DRSC21274 | 79750 | 1.15e5 | 96965 | 1.27e5 | 10585 | inactive
BckdhA | DRSC16395 | 79670 | 62095 | 68655 | 57715 | 4930 | inactive
Grd | DRSC11178 | 2.07e5 | 1.84e5 | 1.91e5 | 2.27e5 | 7980 | inactive
Hasp | DRSC02022 | 1.65e5 | 1.72e5 | 1.53e5 | 1.35e5 | 12075 | inactive
Jon44E | DRSC07216 | 1.24e5 | 1.02e5 | 1.71e5 | 1.68e5 | 12900 | inactive
Xbp1 | DRSC04553 | 1.65e5 | 1.46e5 | 2.36e5 | 2.56e5 | 11965 | inactive
CG3091 | DRSC18274 | 1.35e5 | 1.22e5 | 2.68e5 | 2.35e5 | 10065 | inactive
CG32305 | DRSC08614 | 1.03e5 | 1.37e5 | 2.15e5 | 1.88e5 | 7550 | inactive
eIF4E1 | DRSC11342 | 39395 | 32455 | 26575 | 13100 | 3020 | inactive

Reprinted from the entries so far (2 entries):
predicted target | amplicon | induced reporter light, run 1, well a | induced reporter light, run 1, well b | control promoter light, run 1, well a | control promoter light, run 1, well b | uninduced reporter light, run 1, well a | Outcome
CG32276 | DRSC08027 | 2.38e5 | 2.31e5 | 2.16e5 | 1.85e5 | 18910 | inactive
ND2 (retired record) | DRSC21274 | 79750 | 1.15e5 | 96965 | 1.27e5 | 10585 | inactive

Further entries:
predicted target | amplicon | induced reporter light, run 1, well a | induced reporter light, run 1, well b | control promoter light, run 1, well a | control promoter light, run 1, well b | uninduced reporter light, run 1, well a | Outcome
CG7182 | DRSC10780 | 99680 | 1.01e5 | 78570 | 43810 | 12195 | inactive
CR46300 | DRSC12467 | 1.69e5 | 1.92e5 | 1.94e5 | 2.47e5 | 16838 | inactive
whd | DRSC07351 | 1.50e5 | 1.61e5 | 1.56e5 | 1.38e5 | 13720 | inactive
CG5139 | DRSC00681 | 1.15e5 | 1.10e5 | 92120 | 65030 | 10415 | inactive
org-1 | DRSC18810 | 22642 | 17850 | 44460 | 35115 | 3710 | inactive
Cds | DRSC10938 | 98680 | 85885 | 56415 | 33935 | 8530 | inactive
Mes2 | DRSC11593 | 27920 | 25170 | 43970 | 44020 | 3565 | inactive
Mes2 | DRSC11632 | 21105 | 17305 | 23610 | 21178 | 2950 | inactive
CG34124 | DRSC00849 | 1.15e5 | 87585 | 1.44e5 | 1.28e5 | 9095 | inactive
Cul4 | DRSC07243 | 23315 | 20565 | 18638 | 13965 | 2420 | inactive
